Measured values from PubChem BioAssay AID180 (DTP/NCI, 2004).
The list shows only some results of the screen, not a fair sample: it is rich in T/C values a quarter to a half above the control, in often repeated tests (any T/C) and in doses without a T/C. Further doses and runs are listed elsewhere. T/C gives the treated animals as a percentage of the vehicle group. Schedules are NCI's codes, read here as Q, the interval in days (D) or hours (H), X, the number of doses. Some T/C values carry the count of animals alive at the toxicity check (mostly the fifth day); where none is given, no animal had died by that day. Some entries were tested several times; the results are listed from low to high. Counts like (3×) count equal records among those shown. Some schedule codes hold Z or #, which are not explained here. Some doses have a count of surviving animals in place of a T/C: the source files T/C as zero there, which appears to mark a toxic dose or a test without result, not a measured value. Counts of survivors are from the toxicity check (mostly the fifth day) where no day follows; animals may have died later.

Test system: BDF1 mice, Adenocarcinoma 755 s.c., tumor weight T/C
Test: NCI In Vivo Anticancer Drug Screen. Data for tumor model Adenocarcinoma 755 (subcutaneous) in B6D2F1 (BDF1) mice
Details: T/C endpoint: mean tumor weight, higher T/C = larger tumour; for T/C: evaluated on day 12
Procedure, shortened: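 In vivo antitumor screen on a transplantable tumor line. Result equals the measure in compound-treated animals divided by the same measure in vehicle controls.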

[1] = dose: 1000.0 mg/kg/injection, schedule: Q01DX011 (oral), vehicle: other
[2] = dose: 1500.0 mg/kg/injection, schedule: Q01DX011 (oral), vehicle: other
[3] = dose: 2000.0 mg/kg/injection, schedule: Q01DX011 (oral), vehicle: other
[4] = dose: 2500.0 mg/kg/injection, schedule: Q01DX011 (oral), vehicle: other
[5] = dose: 16.0 mg/kg/injection, schedule: Q01DX011 (ip), vehicle: carboxymethylcellulose (CMC)
[6] = dose: 100.0 mg/kg/injection, schedule: Q01DX011 (ip), vehicle: carboxymethylcellulose (CMC)

COB1OB(OC)OB(OC)O1
T/C (dose: 500.0 mg/kg/injection, schedule: Q## X006 (ip), vehicle: other): 143 % of control | T/C (dose: 750.0 mg/kg/injection, schedule: Q01DX011 (sc), vehicle: other): 40 (2×) and 87 % of control | survivor count (dose: 800.0 mg/kg/injection, schedule: Q01DX011 (ip), vehicle: other): 5 of 10 | T/C [1]: 28, 35, 53 [9 of 10 alive], 88 % of control | survivor count [1]: 6 of 10 | T/C (dose: 1000.0 mg/kg/injection, schedule: Q01DX011 (sc), vehicle: other): 33, 34, 40 % of control | survivor count (dose: 1500.0 mg/kg/injection, schedule: Q01DX011 (ip), vehicle: other): 4 of 10 | T/C [2]: 17 [9 of 10 alive], 20 [9 of 10 alive], 49 % of control | survivor count [2]: 2 of 10 | survivor count (dose: 1500.0 mg/kg/injection, schedule: Q#A X022 (oral), vehicle: water): 6 of 10 | survivor count (dose: 1600.0 mg/kg/injection, schedule: Q01DX011 (im), vehicle: other): 1 of 10 | T/C [3]: 4, 7 [9 of 10 alive], 10, 12, 18 % of control [9 of 10 alive] | survivor count [3]: 0 of 10 | survivor count (dose: 2250.0 mg/kg/injection, schedule: Q02DX006 (ip), vehicle: other): 3 of 10 | T/C [4]: 3 [7 of 10 alive], 4, 7 % of control [9 of 10 alive] | survivor count [4]: 0 of 10 | survivor count (dose: 2500.0 mg/kg/injection, schedule: Q01DX011 (oral), vehicle: water): 5 of 12 | survivor count (dose: 3000.0 mg/kg/injection, schedule: Q01DX011 (oral), vehicle: other): 0 of 10 and 4 of 10

CCCCNc1nc(N)nc(Nc2ccc(Br)cc2)c1N=O
survivor count (dose: 500.0 mg/kg/injection, schedule: Q01DX011 (ip), vehicle: methylcellulose (MC)): 5 of 10

CC(Sc1nc(N)nc2nc[nH]c12)C(=O)O (configuration not stated)
survivor count (dose: 600.0 mg/kg/injection, schedule: Q01DX011 (ip), vehicle: saline): 6 of 10

CCN(CC)c1ccc(/C=C/c2ccnc3ccccc23)cc1
survivor count (dose: 3.0 mg/kg/injection, schedule: Q01DX011 (ip), vehicle: carboxymethylcellulose (CMC)): 6 of 10 | survivor count (dose: 5.0 mg/kg/injection, schedule: Q01DX011 (ip), vehicle: other): 6 of 10 | survivor count (dose: 6.05 mg/kg/injection, schedule: Q01DX011 (ip), vehicle: carboxymethylcellulose (CMC)): 1 of 10 | survivor count (dose: 10.35 mg/kg/injection, schedule: Q01DX011 (ip), vehicle: carboxymethylcellulose (CMC)): 3 of 10 | survivor count (dose: 12.1 mg/kg/injection, schedule: Q01DX011 (ip), vehicle: carboxymethylcellulose (CMC)): 6 of 10 | survivor count (dose: 12.9 mg/kg/injection, schedule: Q01DX011 (ip), vehicle: carboxymethylcellulose (CMC)): 2 of 10 | survivor count [5]: 1 of 10 | survivor count (dose: 16.66 mg/kg/injection, schedule: Q01DX011 (ip), vehicle: carboxymethylcellulose (CMC)): 2 of 10 | survivor count (dose: 20.0 mg/kg/injection, schedule: Q01DX011 (ip), vehicle: other): 5 of 10 and 6 of 10 | survivor count (dose: 24.2 mg/kg/injection, schedule: Q01DX011 (ip), vehicle: carboxymethylcellulose (CMC)): 1 of 10 | survivor count (dose: 25.8 mg/kg/injection, schedule: Q01DX011 (ip), vehicle: carboxymethylcellulose (CMC)): 1 of 10 | survivor count (dose: 25.8 mg/kg/injection, schedule: Q01DX011 (ip), vehicle: other): 5 of 10

Nc1nc(Oc2ccc(Cl)cc2)c2n[nH]nc2n1
T/C [6]: 149 % of control

[I][Hg][CH2][C@H]1CO[C@H]([CH2][Hg][I])CO1
survivor count (dose: 50.0 mg/kg/injection, schedule: Q01DX011 (ip), vehicle: carboxymethylcellulose (CMC)): 1 of 10 | survivor count [6]: 0 of 10 | survivor count (dose: 200.0 mg/kg/injection, schedule: Q01DX011 (ip), vehicle: carboxymethylcellulose (CMC)): 0 of 10

O=[N+]([O-])O.[Ga]
survivor count (dose: 100.0 mg/kg/injection, schedule: Q01DX011 (ip), vehicle: saline): 2 of 12

CC(=O)OCC(=O)C1(O)C(C)CC2C3C=C(C)C4=Cc5c(cnn5-c5ccccc5)CC4(C)C3C(O)CC21C (configuration not stated)
survivor count (dose: 0.4 mg/kg/injection, schedule: Q01DX011 (sc), vehicle: steroid suspending solution): 3 of 6 and 6 of 10 | survivor count (dose: 0.8 mg/kg/injection, schedule: Q01DX011 (sc), vehicle: steroid suspending solution): 0 of 10 | survivor count (dose: 2.5 mg/kg/injection, schedule: Q01DX011 (sc), vehicle: steroid suspending solution): 4 of 10

CC(=O)OCC1OC(n2cnc3c(=S)nc(N)[nH]c32)C(OC(C)=O)C1OC(C)=O (configuration not stated)
survivor count (dose: 30.0 mg/kg/injection, schedule: Q01DX011 (ip), vehicle: carboxymethylcellulose (CMC)): 0 of 10 | survivor count (dose: 50.0 mg/kg/injection, schedule: Q01DX011 (ip), vehicle: other): 0 of 10 | survivor count (dose: 60.0 mg/kg/injection, schedule: Q01DX011 (ip), vehicle: carboxymethylcellulose (CMC)): 0 of 10 | survivor count (dose: 100.0 mg/kg/injection, schedule: Q01DX011 (ip), vehicle: other): 0 of 10 | survivor count (dose: 120.0 mg/kg/injection, schedule: Q01DX011 (ip), vehicle: carboxymethylcellulose (CMC)): 0 of 10

CO[C@@]12[C@H](COC(N)=O)C3=C(C(=O)C(C)=C(N)C3=O)N1C[C@@H]1N[C@@H]12
survivor count (dose: 0.5 mg/kg/injection, schedule: Q01DX011 (ip), vehicle: carboxymethylcellulose (CMC)): 0 of 10 | survivor count (dose: 1.0 mg/kg/injection, schedule: Q01DX011 (ip), vehicle: carboxymethylcellulose (CMC)): 0 of 10 | survivor count (dose: 2.0 mg/kg/injection, schedule: Q01DX011 (ip), vehicle: methylcellulose (MC)): 6 of 10 | survivor count (dose: 2.05 mg/kg/injection, schedule: Q01DX011 (ip), vehicle: carboxymethylcellulose (CMC)): 3 of 10 | T/C (dose: 256.0 micrograms/kg/injection, schedule: Q01DX011 (ip), vehicle: carboxymethylcellulose (CMC)): 137 % of control [9 of 10 alive] | survivor count (dose: 1800.0 micrograms/kg/injection, schedule: Q01DX011 (ip), vehicle: carboxymethylcellulose (CMC)): 4 of 10

O=C(O)c1cc(Cl)nc(Cl)n1
T/C (dose: 15.0 mg/kg/injection, schedule: Q01DX011 (ip), vehicle: methylcellulose (MC)): 134 % of control | survivor count (dose: 250.0 mg/kg/injection, schedule: Q01DX011 (ip), vehicle: methylcellulose (MC)): 2 of 10

Nc1nc(N)c(N=O)c(Nc2ccc(I)cc2)n1
T/C (dose: 4.0 mg/kg/injection, schedule: Q01DX011 (ip), vehicle: carboxymethylcellulose (CMC)): 38, 41, 47 [9 of 10 alive], 52, 66 % of control | T/C [5]: 24, 39, 63 % of control [9 of 10 alive] | survivor count [5]: 2 of 10 | survivor count (dose: 64.0 mg/kg/injection, schedule: Q01DX011 (ip), vehicle: carboxymethylcellulose (CMC)): 3 of 10 | survivor count (dose: 256.0 mg/kg/injection, schedule: Q01DX011 (ip), vehicle: carboxymethylcellulose (CMC)): 0 of 10

CCCCOC(OCCCC)C(OCCCC)OCCCC
survivor count (dose: 400.0 mg/kg/injection, schedule: Q01DX011 (ip), vehicle: other): 4 of 10

Cn1c(=O)c2c(nc(C(=N)SCC(=O)O)n2C)n(C)c1=O
survivor count (dose: 75.0 mg/kg/injection, schedule: Q01DX011 (ip), vehicle: methylcellulose (MC)): 5 of 10 | survivor count (dose: 225.0 mg/kg/injection, schedule: Q01DX011 (ip), vehicle: methylcellulose (MC)): 1 of 10

CCNc1nncs1
survivor count (dose: 113.8 mg/kg/injection, schedule: Q01DX011 (ip), vehicle: carboxymethylcellulose (CMC)): 5 of 10
